# The list does not hold the whole screen: it gathers tests that were run many times, whatever their T/C, doses with no T/C, and many T/C values between a quarter and a half above the control. Further doses and runs are listed elsewhere. T/C: endpoint of the treated group in % of that of the vehicle group. Some doses have a count of surviving animals in place of a T/C: the source files T/C as zero there, which appears to mark a toxic dose or a test without result, not a measured value. Some doses without a T/C left all or most animals alive at the check, yet need not have been tolerated: survival well below the control is almost never listed, so the zero probably covers shortened survival too. Counts of survivors are from the toxicity check (mostly the fifth day) where no day follows; animals may have died later. Schedule codes are those of the source, taken here to give the interval after Q, in days (D) or hours (H), and the number of doses after X. Some schedule codes hold Z or #, which are not explained here. For survival time, this PubChem deposit counts one and a half times the control or more as active, and values a quarter to a half above the control carry no call in these data; other NCI protocols may use other cut-offs. Some doses were run more than once; the results are listed from low to high. Some T/C values carry the count of animals alive at the toxicity check (mostly the fifth day); where none is given, no animal had died by that day.
# Tested on: L1210 leukemia ip in BDF1 mice, survival T/C
# Experiment: NCI In Vivo Anticancer Drug Screen. Data for tumor model L1210 Leukemia (intraperitoneal) in B6D2F1 (BDF1) mice
# Conditions: T/C endpoint: mean survival time, higher T/C = longer survival
# [1] = dose: 40.0 micrograms/kg/injection, schedule: Q01DX Z (ip), vehicle: carboxymethylcellulose (CMC)
compound,measurement,setting,value
Cc1c2oc3c(C)ccc(C(=O)N[C@@H]4C(=O)N[C@H](C(C)C)C(=O)N5CCC[C@H]5C(=O)N(C)CC(=O)N(C)[C@@H](C(C)C)C(=O)O[C@H]4C)c3nc-2c(C(=O)N[C@@H]2C(=O)N[C@H](C(C)C)C(=O)N3CCC[C@H]3C(=O)N(C)CC(=O)N(C)[C@@H](C(C)C)C(=O)O[C@H]2C)c(N)c1=O,T/C,"dose: 32.0 micrograms/kg/injection, schedule: Q01DX009 (ip), vehicle: clinical formulation",138 % of control
same,T/C,"dose: 32.0 micrograms/kg/injection, schedule: Q01DX009 (ip), vehicle: saline",129 % of control [8 of 10 alive]
same,T/C,"dose: 32.0 micrograms/kg/injection, schedule: Q01DX009 (ip), vehicle: water, evaluated on day 5",139 % of control
same,T/C,"dose: 32.0 micrograms/kg/injection, schedule: Q01DX009 (ip), vehicle: water, evaluated on day 30",135 % of control
same,T/C,"dose: 32.0 micrograms/kg/injection, schedule: Q01DX009 (ip), vehicle: water, evaluated on day 60",141 % of control
same,T/C,"dose: 37.0 micrograms/kg/injection, schedule: Q03DX Z (ip), vehicle: other",131 % of control
same,T/C,"dose: 37.0 micrograms/kg/injection, schedule: Q03DX Z (ip), vehicle: saline",144 % of control
same,T/C,"dose: 37.5 micrograms/kg/injection, schedule: Q01DX009 (ip), vehicle: saline + alcohol",139 % of control
same,T/C,[1],134 % of control
same,survivor count,[1],0 of 6
same,T/C,"dose: 45.0 micrograms/kg/injection, schedule: Q01DX015 (ip), vehicle: saline",125 and 137 % of control
same,T/C,"dose: 50.0 micrograms/kg/injection, schedule: Q01DX009 (ip), vehicle: saline + alcohol",140 % of control
same,T/C,"dose: 50.0 micrograms/kg/injection, schedule: Q01DX009 (ip), vehicle: saline",129 % of control
same,T/C,"dose: 50.0 micrograms/kg/injection, schedule: Q01DX010 (ip), vehicle: other","109, 141, 143, 167 % of control"
same,survivor count,"dose: 60.0 micrograms/kg/injection, schedule: Q01DX Z (ip), vehicle: carboxymethylcellulose (CMC)",0 of 6
same,T/C,"dose: 64.0 micrograms/kg/injection, schedule: Q01DX009 (ip), vehicle: saline",125 % of control [8 of 10 alive]
same,T/C,"dose: 64.0 micrograms/kg/injection, schedule: Q01DX009 (ip), vehicle: water, evaluated on day 5",135 % of control
same,T/C,"dose: 64.0 micrograms/kg/injection, schedule: Q01DX009 (ip), vehicle: water, evaluated on day 30",130 % of control
same,T/C,"dose: 67.0 micrograms/kg/injection, schedule: Q02DX008 (ip), vehicle: saline",138 % of control
same,T/C,"dose: 75.0 micrograms/kg/injection, schedule: Q01DX009 (ip), vehicle: saline + alcohol",145 % of control
same,T/C,"dose: 75.0 micrograms/kg/injection, schedule: Q03DX Z (ip), vehicle: other",134 % of control
same,T/C,"dose: 100.0 micrograms/kg/injection, schedule: Q01DX010 (ip), vehicle: other","117, 136, 139, 145 % of control"
same,T/C,"dose: 100.0 micrograms/kg/injection, schedule: Q01DX015 (ip), vehicle: saline",126 and 144 % of control
same,T/C,"dose: 100.0 micrograms/kg/injection, schedule: Q01DX Z (im), vehicle: other",128 % of control
same,T/C,"dose: 100.0 micrograms/kg/injection, schedule: Q02DX008 (ip), vehicle: saline",137 % of control
same,T/C,"dose: 104.0 micrograms/kg/injection, schedule: Q## X032 (ip), vehicle: saline",132 % of control
same,T/C,"dose: 112.0 micrograms/kg/injection, schedule: Q04DX003 (ip), vehicle: saline + alcohol",132 % of control
same,survivor count,"dose: 128.0 micrograms/kg/injection, schedule: Q01DX009 (ip), vehicle: clinical formulation",9 of 10
same,survivor count,"dose: 128.0 micrograms/kg/injection, schedule: Q01DX009 (ip), vehicle: saline",10 of 10
same,T/C,"dose: 135.0 micrograms/kg/injection, schedule: Q## X004 (ip), vehicle: saline",144 % of control
same,T/C,"dose: 150.0 micrograms/kg/injection, schedule: Q03DX Z (ip), vehicle: other",144 % of control
same,T/C,"dose: 150.0 micrograms/kg/injection, schedule: Q04DX003 (ip), vehicle: saline + alcohol",132 % of control
same,T/C,"dose: 150.0 micrograms/kg/injection, schedule: Q04DX003 (ip), vehicle: saline",132 % of control
same,T/C,"dose: 160.0 micrograms/kg/injection, schedule: Q## X032 (ip), vehicle: saline",128 % of control
same,T/C,"dose: 225.0 micrograms/kg/injection, schedule: Q02DX008 (ip), vehicle: saline",148 % of control
same,T/C,"dose: 225.0 micrograms/kg/injection, schedule: Q04DX003 (ip), vehicle: saline + alcohol",140 % of control
same,T/C,"dose: 240.0 micrograms/kg/injection, schedule: Q## X032 (ip), vehicle: saline",127 % of control
same,T/C,"dose: 256.0 micrograms/kg/injection, schedule: Q01DX001 (ip), vehicle: saline",140 % of control
same,T/C,"dose: 256.0 micrograms/kg/injection, schedule: Q04DX003 (ip), vehicle: water",133 % of control
same,T/C,"dose: 300.0 micrograms/kg/injection, schedule: Q04DX003 (ip), vehicle: saline + alcohol",144 % of control
same,T/C,"dose: 300.0 micrograms/kg/injection, schedule: Q## X004 (ip), vehicle: saline",144 % of control
same,T/C,"dose: 330.0 micrograms/kg/injection, schedule: Q02DX008 (ip), vehicle: saline",135 % of control
same,T/C,"dose: 350.0 micrograms/kg/injection, schedule: Q01DX001 (ip), vehicle: other",140 % of control
same,T/C,"dose: 350.0 micrograms/kg/injection, schedule: Q07DX Z (ip), vehicle: other",145 % of control
same,T/C,"dose: 360.0 micrograms/kg/injection, schedule: Q## X032 (ip), vehicle: saline",126 % of control
same,T/C,"dose: 400.0 micrograms/kg/injection, schedule: Q01DX001 (ip), vehicle: saline",130 % of control
same,T/C,"dose: 512.0 micrograms/kg/injection, schedule: Q01DX001 (ip), vehicle: clinical formulation",134 % of control

# From PubChem BioAssay AID248 (DTP/NCI, 2004)
